The list shows a part of the results, in another mix than the full data. At the low end of the ranking, values are background and their order means little.
Target: SPI1 (UniProt P17947)
Test: DAPPL (digital affinity profiling via proximity ligation, sequencing)
Settings: 10 mM Tris-HCl pH 7.5, 50 mM NaCl, 1 mM DTT, 4% glycerol, room temperature, 30 min; GST-TFs on glutathione beads, 16-mer random dsDNA library, 0.1% …; high values mean tight binding; double strand, one strand shown; scale: fold enrichment (6-mer frequency, TF over GST control)

Sequence | binding signal
GGCCAC | 0.867
TAAGTG | 0.766
TAGAGG | 0.96
TTGTCG | 0.876
TCGGGC | 0.49
GAGGCA | 0.447
GCCGTA | 0.754
GACACG | 0.642
AGGGTG | 0.691
GGAGAT | 0.286
AGGACT | 0.831
GGAACG | 0.62
CACGTG | 0.583
TCGGTC | 0.573
AGTAGG | 0.758
AGGTAC | 0.915
AGAAAG | 0.912
GGTTCG | 0.778
CGTTGA | 0.743
GAGTTG | 0.488

Sequence | binding signal
GACCCT | 0.813
AGCAAG | 0.886
GCCGGT | 0.665
TCAGGG | 0.802
GAGGCT | 0.489
GAGTCA | 0.252
CGGGGG | 0.42
TCGTGG | 0.702
GAACGA | 0.769
CCTGTC | 0.876
GGGCAA | 0.858
GTTGTG | 0.861
GCCCGT | 0.625
GGGCCC | 0.819
GTAAGA | 0.79
GCGTAC | 0.779
TGCGAG | 0.928
CAGGTA | 0.77
CAAGGG | 0.907
TCGCCA | 0.969

Retrieved one by one from the list above (two):
Sequence | binding signal
GGGCCC | 0.819
GGGCAA | 0.858
